Experimental findings from the supplement of paper PMC6289059 are described below.

Where “and” joins values, the source holds several entries; their conditions need not be identical. Equal entries are not always repeated. The list shows a part of the results. Repeats are few or missing, and single values can be far off.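 The assay uses human stem cell-derived hepatocyte-like cells whose DGUOK gene was disrupted by CRISPR, modeling liver mtDNA depletion syndrome. ATP signals were scored within each plate, and any drug with a score of at least 3 was called a primary hit.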 Residues, ends and D or L forms follow the SMILES beside them.

The test system of this experiment is DGUOK Δ14/Δ5 iPSC-derived hepatocyte-like cells (SV20). Briefly: ATP level (CellTiter-Glo luminescence) Z score relative to plate distribution, under 2-DG glycolysis block; higher = more cellular ATP (rescue of mitochondrial ATP production). Conditions: 5 µM; treatment time: day 15 to day 20 of differentiation (5 days); 2-deoxy-D-glucose: 20 mM for 24 h before assay. For orientation: ATP-based viability assays read luminescence as a measure of living cells.
In the case of `O=C(O)CCC(=O)Nc1ccc(S(=O)(=O)Nc2nccs2)cc1`, the ATP level is inactive: 1.26.
With `Cc1cccc(CN2CCN(C(c3ccccc3)c3ccc(Cl)cc3)CC2)c1` (stereo not given), the ATP level was inactive: 0.576.
As for `COc1ccccc1O`, the ATP level is inactive: 0.423.
For `O=NN(CCCl)C(=O)NC1CCCCC1`, the ATP level was inactive: 1.07.
Consider `O=C(O)[C@@H]1CCCN1`, for which the ATP level is inactive: 1.74.
Turning to `CC(=O)OCC(=O)[C@@]1(O)CC[C@H]2[C@@H]3C[C@H](C)C4=CC(=O)C=C[C@]4(C)[C@H]3[C@@H](O)C[C@@]21C` [6alpha-METHYLPREDNISOLONE ACETATE], the ATP level was inactive: 1.18.
To `CCOC(=O)C1=C[C@]2(CC)CCCN3CCc4c(n1c1ccccc41)[C@@H]32` belongs inactive: 2.29.
To `COc1ccc(-c2cc(=O)c3c(O)cc(O[C@@H]4O[C@H](CO[C@@H]5O[C@@H](C)[C@H](O)[C@@H](O)[C@H]5O)[C@@H](O)[C@H](O)[C@H]4O)cc3o2)cc1O` belongs inactive: -3.79.
As to `CC(C)CC(NC(=O)CN)C(=O)NC(Cc1ccccc1)C(=O)O` (stereo not drawn) (H-Gly-Leu-Phe-OH; configuration not given here), the ATP level is inactive: -1.38.
For `O=c1c2cc(O)c(O)cc2oc2cc(O)c([C@@H]3O[C@H](CO)[C@@H](O)[C@H](O)[C@H]3O)c(O)c12`, the ATP level is inactive: 1.98.
Consider `C/C=N/N(C)C=O`, for which the ATP level is inactive: -3.51.
As for `C=C1C[C@]23C[C@@]1(O)CC[C@H]2[C@@]12C=C[C@H](O)[C@@](C)(C(=O)O1)[C@H]2[C@@H]3C(=O)O`, the ATP level is inactive: -1.62.
On to `c1ccc2[nH]c(-c3cscn3)nc2c1`, for which the ATP level was inactive: -0.568.
Turning to `OC[C@@H](O)[C@@H](O[C@@H]1O[C@H](CO)[C@H](O)[C@H](O)[C@H]1O)[C@H](O)[C@@H](O)CO`, the ATP level was inactive: 0.557 and inactive: 1.85.
Under `CN1[C@@H](CC(=O)c2ccccc2)CCC[C@H]1C[C@H](O)c1ccccc1` stands inactive: -0.813.
For `COc1ccc(C(=O)c2ccc(C)cc2)c(O)c1`, the ATP level was inactive: 0.0376.
For the compound `NC(=O)NC(=O)Cc1ccccc1`, the ATP level was inactive: 1.13.
Take `CCOC(=O)[C@H](CCc1ccccc1)N[C@@H](C)C(=O)N1CCC[C@H]1C(=O)O`: the ATP level is inactive: 2.36.
Consider `CO/N=C(\C(=O)N[C@@H]1C(=O)N2C(C(=O)O)=C(C[N+]3(C)CCCC3)CS[C@H]12)c1csc(N)n1`, for which the ATP level was inactive: 1.99.
In the case of `CC(=O)N[C@@H](Cc1ccccc1)C(=O)O`, the ATP level was inactive: 0.58.
For `Cn1nnnc1SCC1=C(C(=O)O)N2C(=O)[C@@H](NC(=O)[C@H](OC=O)c3ccccc3)[C@H]2SC1`, the ATP level was inactive: 1.54.
For the compound `OCC(O)C(O)C(O)C(O)C(O)CO` (stereo not given), the ATP level is inactive: -1.16.
As for `COc1cc(O)c(C)c(O)c1`, the ATP level is inactive: 0.415.
`C[C@]12CC[C@@H]3c4ccc(O)cc4CC[C@H]3[C@@H]1C[C@H](O)[C@@H]2O`: the ATP level was inactive: 0.835.
`C[C@H](CCC(=O)O)[C@H]1CC[C@H]2[C@@H]3CC[C@@H]4CCCC[C@]4(C)[C@H]3CC[C@]12C`: the ATP level was inactive: 0.96.
Regarding `N=C(N)NC(=O)c1nc(Cl)c(N2CCCCCC2)nc1N`, the ATP level is inactive: -4.24.
In the case of `CC1=C(CC(=O)O)c2cc(F)ccc2/C1=C\c1ccc([S+](C)[O-])cc1` (stereo not given), the ATP level is inactive: -0.754.
In the case of `CC(Oc1c(Cl)cccc1Cl)C1=NCCN1` (stereo not given), the ATP level is inactive: 0.914.
`Cc1cccc2c3c(ccc12)C1=C(C(=O)C3=O)[C@@H](C)CO1`: the ATP level is inactive: -2.28.
Under `C[C@]12CC[C@@H]3c4ccc(O)cc4CC[C@H]3[C@@H]1C[C@@H](O)[C@@H]2O` stands inactive: -23.5; under `CCOc1ccc(C(=O)c2ccc(O)c(O)c2O)cc1`, inactive: -0.88.
Take `CCCCC(=O)O[C@]1(C(=O)CO)CC[C@H]2[C@@H]3CCC4=CC(=O)CC[C@]4(C)[C@H]3[C@@H](O)C[C@@]21C`: the ATP level was inactive: 1.53.
On to `CCc1cccc2c3c([nH]c12)C(CC)(CC(=O)O)OCC3` (stereo not given), for which the ATP level was inactive: 1.83.
To `Cc1noc(NS(=O)(=O)c2ccc(N)cc2)c1C` belongs inactive: -9.71; to `COc1ccc2c(c1)OCC(Cc1ccc(OC)c(OC(C)=O)c1)C2=O` (stereo not given), inactive: -2.23.
As for `OCCOCCN1CCN(C(c2ccccc2)c2ccc(Cl)cc2)CC1` (stereo not given), the ATP level is inactive: 0.361.
In the case of `CC(=O)O[C@H]1C[C@@H](OC(C)=O)C(C)(C)C2C[C@@H](O)[C@]3(C)C(CC[C@@]4(C)[C@H](c5ccoc5)OC(=O)[C@H]5O[C@]543)[C@]21C` (stereo not given in full), the ATP level is inactive: 0.846.
In the case of `Cc1cc(-n2c(=O)[nH]c(=O)n(C)c2=O)ccc1Oc1ccc(SC(F)(F)F)cc1`, the ATP level is inactive: -2.79.
Under `Cc1ccccc1N1C(=O)c2cc(S(N)(=O)=O)c(Cl)cc2NC1C` (stereo not given) stands inactive: -0.212; under `CO[C@H]1[C@H](O)[C@@H](O)[C@H](O)[C@H](O)[C@H]1O`, inactive: 1.8.
Turning to `COc1ccc(-c2coc3c(OC)c(OC)cc(O)c3c2=O)cc1`, the ATP level is inactive: -0.127.
On to `COc1ccc(C(=O)c2ccc(O)cc2)c(O)c1O`, for which the ATP level is inactive: 0.787.
As to `CC(C)COC(=O)c1ccc(N)cc1`, the ATP level is inactive: 1.39.
On to `COC(=O)C(C)c1ccc(C(=O)c2cccs2)cc1` (stereo not given), for which the ATP level is inactive: -0.701.
As for `COc1ccc2[nH]c([S+]([O-])Cc3ncc(C)c(OC)c3C)nc2c1` (stereo not given), the ATP level was inactive: 0.573.
To `NCCCC(N)C(=O)O` (stereo not given) belongs inactive: -0.916; to `CCCCC(CC)CN=C(N)N=C(N)NCCCCCCNC(N)=NC(N)=NCC(CC)CCCC` (stereo not given), inactive: -2.29; to `O=C(O)c1cc(O)c(=O)c2c(O)c(O)ccc2c1`, inactive: -0.106.
On to `CC(=O)Oc1c(C)c(C)c2c(c1C)CCC(C)(CCCC(C)CCCC(C)CCCC(C)C)O2` (stereo not drawn) [alpha-TOCHOPHERYL ACETATE [4mM]], for which the ATP level is inactive: -0.227.
To `C=CCSCC(N)C(=O)O` (stereo not given) belongs inactive: 1.93; to `O=S(=O)(O)CCCS(=O)(=O)O`, inactive: -11.2; to `O=C1CC(c2ccc(O)cc2)Oc2ccccc21` (stereo not given), inactive: -6.89.
Under `Cc1cc(O)c(C=O)c2c1C(=O)Oc1c(COC(=O)/C=C/C(=O)O)c(O)c(C(=O)O)c(C)c1O2` stands inactive: 0.998.
Consider `CN(C)CCOC(=O)COc1ccc(Cl)cc1`, for which the ATP level is inactive: -0.499.
`O=C(OCc1ccccc1)c1ccccc1`: the ATP level is inactive: 0.165.
